Like-named read-outs stand apart in the source and are kept apart here.
Test system: APPL1
Settings: HepG2, FIG. 2b

`CC(=O)C1CC[C@H]2[C@@H]3CC=C4CC(O)CC[C@]4(C)[C@H]3[C@@H](O)C[C@]12C` (stereo partly drawn) [Compound 1039, 1-((8S,9S,10R,11S,13S,14S)-3,11-dihydroxy-10,13-dimethyl-2,3,4,- 7,8,9,10,11,12,13,14,15,16,17-tetradecahydro-1H-cyclopenta[a]-phenanthren-17-yl)ethanone] was tested, and the “APPL1 activation and translocation to the nucleus” value was “activates APPL1 and causes its translocation to the nucleus” and the “APPL1 activation and translocation to the nucleus” value (listed as 11β-hydroxypregnenolone) was “activation APPL1 and translocation to the nucleus”.
